Laboratory results taken from patent US12378320B2, “Methods for treating pancreatitis” (Cold Spring Harbor Laboratory, priority 2018, dated 2025).

System: CA19-9 modified proteins
Assay: CA19-9 IP/MS (iTRAQ) of organoid conditioned media after Dox treatment
Set-up: species or system mouse
Conditions: for 17 0H 5B1 (CA19-9 IP/MS relative abundance) / 17 0H NS19 (CA19-9 IP/MS relative abundance) / 17 8H 5B1 (CA19-9 IP/MS relative abundance) / 17 8H NS19 (CA19-9 IP/MS relative abundance): A217 organoid conditioned media; for 17 0H NS19 (CA19-9 IP/MS relative abundance) / 17 8H NS19 (CA19-9 IP/MS relative abundance) / 20 0H NS19 (CA19-9 IP/MS relative abundance) / 20 8H NS19 (CA19-9 IP/MS relative abundance): NS19-9; for 17 0H NS19 (CA19-9 IP/MS relative abundance): every printed value in this column is 1; for 20 0H 5B1 (CA19-9 IP/MS relative abundance) / 20 0H NS19 (CA19-9 IP/MS relative abundance) / 20 8H 5B1 (CA19-9 IP/MS relative abundance) / 20 8H NS19 (CA19-9 IP/MS relative abundance): A220 organoid conditioned media
[1] = CA19-9 IP/MS relative abundance, A217 (genetic negative) organoid conditioned media, 0H (before treatment), IP with NS19-9, reference channel = 1
[2] = CA19-9 IP/MS relative abundance, A217 (genetic negative) organoid conditioned media, after 8 hours, IP with 5B1
[3] = CA19-9 IP/MS relative abundance, A217 (genetic negative) organoid conditioned media, after 8 hours, IP with NS19-9
[4] = CA19-9 IP/MS relative abundance, A220 (C;R^LSL;F) organoid conditioned media, 0H (before treatment), IP with 5B1
[5] = A217 (genetic negative) organoids conditioned media, after 8 hours of treatment, CA19-9 IP with 5B1, relative to 17 0H NS19
[6] = A217 (genetic negative) organoids conditioned media, after 8 hours of treatment, CA19-9 IP with NS19-9, relative to 17 0H NS19
[7] = A217 (genetic negative) organoids conditioned media, before treatment (0H), CA19-9 IP with NS19-9, relative abundance, reference channel
[8] = A220 (C;R^LSL;F) organoids conditioned media, before treatment (0H), CA19-9 IP with 5B1, relative to 17 0H NS19

| Substance | 17 0H NS19 [1] | 17 8H 5B1 [2] | 17 8H NS19 [3] | 20 0H 5B1 [4] | 17 8H 5B1 [5] | 17 8H NS19 [6] | 17 0H NS19 [7] | 20 0H 5B1 [8] | also measured |
| --- | --- | --- | --- | --- | --- | --- | --- | --- | --- |
| P51150 | – | – | – | – | – | – | – | – | 17 0H 5B1 (CA19-9 IP/MS relative abundance): 1.645; 17 0H NS19 (CA19-9 IP/MS relative abundance): 1; 17 8H 5B1 (CA19-9 IP/MS relative abundance): 1.178; 17 8H NS19 (CA19-9 IP/MS relative abundance): 0.671; 20 0H 5B1 (CA19-9 IP/MS relative abundance): 1.253; 20 0H NS19 (CA19-9 IP/MS relative abundance): 0.493; 20 8H 5B1 (CA19-9 IP/MS relative abundance): 1.16; 20 8H NS19 (CA19-9 IP/MS relative abundance): 0.53 |
| P52480 | 1 | 6.066 | 0.517 | 5.275 | – | – | – | – | – |
| P56480 | – | – | – | – | 2.174 | 0.622 | 1 | 1.758 | – |
| P60122 | 1 | 1.961 | 0.608 | 1.597 | – | – | – | – | – |
| P60766 | – | – | – | – | 2.179 | 0.616 | 1 | 1.597 | – |
| P60843 | – | – | – | – | 3.945 | 0.617 | 1 | 2.78 | – |
| P61407 | – | – | – | – | – | – | – | – | 17 0H 5B1 (CA19-9 IP/MS relative abundance): 0.571; 17 0H NS19 (CA19-9 IP/MS relative abundance): 1; 17 8H 5B1 (CA19-9 IP/MS relative abundance): 0.525; 17 8H NS19 (CA19-9 IP/MS relative abundance): 0.823; 20 0H 5B1 (CA19-9 IP/MS relative abundance): 0.299; 20 0H NS19 (CA19-9 IP/MS relative abundance): 0.185; 20 8H NS19 (CA19-9 IP/MS relative abundance): 0.224 |
| P62334 | – | – | – | – | – | – | – | – | 17 0H 5B1 (CA19-9 IP/MS relative abundance): 1.651; 17 0H NS19 (CA19-9 IP/MS relative abundance): 1; 17 8H 5B1 (CA19-9 IP/MS relative abundance): 1.432; 17 8H NS19 (CA19-9 IP/MS relative abundance): 0.561; 20 0H 5B1 (CA19-9 IP/MS relative abundance): 1.279; 20 0H NS19 (CA19-9 IP/MS relative abundance): 0.524; 20 8H 5B1 (CA19-9 IP/MS relative abundance): 1.73; 20 8H NS19 (CA19-9 IP/MS relative abundance): 0.454 |
| P63017 | 1 | 6.817 | 0.77 | 5.57 | – | – | – | – | – |
| P68372 | 1 | 4.135 | 0.585 | 3.906 | – | – | – | – | – |
| P68373 | 1 | 6.264 | 0.65 | 4.46 | – | – | – | – | – |
| P80317 | 1 | 2.42 | 0.66 | 2.041 | – | – | – | – | – |
| P99024 | 1 | 4.365 | 0.649 | 3.894 | – | – | – | – | – |
| P99027 | 1 | 4.951 | 0.448 | 4.357 | – | – | – | – | – |
| Q3THK7 | – | – | – | – | 2.592 | 0.747 | 1 | 2.124 | – |
| Q6P5H2 | – | – | – | – | – | – | – | – | 17 0H 5B1 (CA19-9 IP/MS relative abundance): 1.513; 17 0H NS19 (CA19-9 IP/MS relative abundance): 1; 17 8H 5B1 (CA19-9 IP/MS relative abundance): 0.707; 17 8H NS19 (CA19-9 IP/MS relative abundance): 1.712; 20 0H 5B1 (CA19-9 IP/MS relative abundance): 1.036; 20 0H NS19 (CA19-9 IP/MS relative abundance): 0.553; 20 8H 5B1 (CA19-9 IP/MS relative abundance): 2.072; 20 8H NS19 (CA19-9 IP/MS relative abundance): 0.582 |
| Q6PDM2 | – | – | – | – | – | – | – | – | 17 0H 5B1 (CA19-9 IP/MS relative abundance): 0.997; 17 0H NS19 (CA19-9 IP/MS relative abundance): 1; 17 8H 5B1 (CA19-9 IP/MS relative abundance): 0.883; 17 8H NS19 (CA19-9 IP/MS relative abundance): 0.234; 20 0H 5B1 (CA19-9 IP/MS relative abundance): 0.809; 20 0H NS19 (CA19-9 IP/MS relative abundance): 0.214; 20 8H 5B1 (CA19-9 IP/MS relative abundance): 0.879; 20 8H NS19 (CA19-9 IP/MS relative abundance): 0.269 |
| Q8JZQ9 | – | – | – | – | 1.39 | 0.455 | 1 | 1.286 | – |
| Q8VDD5 | – | – | – | – | 1.89 | 0.936 | 1 | 1.638 | – |
| Q8VEK3 | – | – | – | – | – | – | – | – | 17 0H 5B1 (CA19-9 IP/MS relative abundance): 2.14; 17 0H NS19 (CA19-9 IP/MS relative abundance): 1; 17 8H 5B1 (CA19-9 IP/MS relative abundance): 2.123; 17 8H NS19 (CA19-9 IP/MS relative abundance): 0.595; 20 0H 5B1 (CA19-9 IP/MS relative abundance): 1.932; 20 0H NS19 (CA19-9 IP/MS relative abundance): 0.665; 20 8H 5B1 (CA19-9 IP/MS relative abundance): 1.931; 20 8H NS19 (CA19-9 IP/MS relative abundance): 0.658 |
| Q9CWF2 | 1 | 4.413 | 0.687 | 4.113 | – | – | – | – | – |
| Q9CXY6 | – | – | – | – | 1.028 | 0.299 | 1 | 0.822 | – |
| Q9D892 | – | – | – | – | – | – | – | – | 17 0H 5B1 (CA19-9 IP/MS relative abundance): 1.766; 17 0H NS19 (CA19-9 IP/MS relative abundance): 1; 17 8H 5B1 (CA19-9 IP/MS relative abundance): 2.106; 17 8H NS19 (CA19-9 IP/MS relative abundance): 0.855; 20 0H 5B1 (CA19-9 IP/MS relative abundance): 1.611; 20 0H NS19 (CA19-9 IP/MS relative abundance): 0.278; 20 8H 5B1 (CA19-9 IP/MS relative abundance): 2.111; 20 8H NS19 (CA19-9 IP/MS relative abundance): 0.635 |
| Q9JHU4 | – | – | – | – | 1.14 | 0.538 | 1 | 1.088 | – |
| Q9QZD9 | – | – | – | – | – | – | – | – | 17 0H 5B1 (CA19-9 IP/MS relative abundance): 3.088; 17 8H 5B1 (CA19-9 IP/MS relative abundance): 3.321; 17 8H NS19 (CA19-9 IP/MS relative abundance): 0.455; 20 0H 5B1 (CA19-9 IP/MS relative abundance): 2.689; 20 0H NS19 (CA19-9 IP/MS relative abundance): 0.427; 20 8H 5B1 (CA19-9 IP/MS relative abundance): 2.871; 20 8H NS19 (CA19-9 IP/MS relative abundance): 0.338 |
| Q68FD5 | 1 | 3.203 | 0.654 | 2.822 | – | – | – | – | – |
| Q01853 | – | – | – | – | 1.814 | 0.773 | 1 | 1.283 | – |
| Q04447 | – | – | – | – | 2.713 | 0.673 | 1 | 1.888 | – |
